Measurements as given in publication PMC7948479, “Allostery in the nitric oxide dioxygenase mechanism of flavohemoglobin” (The Journal of Biological Chemistry, 2020).
Read-outs that look alike come from different tables or passages of the source.

Tested on: flavoHb heme (Fe^2+ / Fe^3+)
Description: FAD and heme reduction were monitored by following the changes in flavoHb absorbance at 460 and 430 nm, respectively, with stopped-flow rapid mixing of 50 μM NADH and 10 μM flavoHb in N2-purged buffer ([4]). O2, NO, and CO association rate constants were determined by photolyzing 50 μM of the respective ferrous flavoHb species with a 300-ns pulse from a 577-nm laser and by spectrophotometrically following ligand reassociation in O2-, NO-, or CO-saturated buffer unless otherwise indicated ([4], [5]). […] Binding of NO was measured by the change of absorbance at 422 nm by applying a difference extinction coefficient of 0.040 μM^−1 cm^−1. O2 and CO dissociation rate constants were determined by stopped-flow rapid mixing with either CO or NO displacement ([4], [5]). The cuvette path length was 1.0 cm. All reactions were at 20 °C in filtered 100 mM sodium phosphate buffer, pH 7.0, containing 0.3 mM EDTA. Catalase (1000 U/ml) was included in all reactions containing O2 to scavenge H2O2 produced by the NADH oxidase activity of flavoHb and to regenerate O2.

[1] = Fe2+ CO, 100 µM CO in the presence of 0.6 mM N2
[2] = Fe2+ O2, 100 µM CO in the presence of 1 mM O2

B1: WT: wild-type E. coli flavohemoglobin (flavoHb), an NO dioxygenase (NOD) (protein, UniProt P24232 1-396, looked up)
Flavohemoprotein: MLDAQTIATVKATIPLLVETGPKLTAHFYDRMFTHNPELKEIFNMSNQRNGDQREALFNAIAAYASNIENLPALLPAVEKIAQKHTSFQIKPEQYNIVGEHLLATLDEMFSPGQEVLDAWGKAYGVLANVFINREAEIYNENASKAGGWEGTRDFRIVAKTPRSALITSFELEPVDGGAVAEYRPGQYLGVWLKPEGFPHQEIRQYSLTRKPDGKGYRIAVKREEGGQVSNWLHNHANVGDVVKLVAPAGDFFMAVADDTPVTLISAGVGQTPMLAMLDTLAKAGHTAQVNWFHAAENGDVHAFADEVKELGQSLPRFTAHTWYRQPSEADRAKGQFDSEGLMDLSKLEGAFSDPTMQFYLCGPVGFMQFTAKQLVDLGVKQENIHYECFGPHKVL
fraction of fast phase [1]: 56% | fraction of slow phase [1]: 44% | Φdis [1]: 15% | fraction of fast phase [2]: 64% | fraction of slow phase [2]: 36% | Φdis [2]: 4% | fraction of fast phase (Fe^2+ CO, 20 °C): 72% | fraction of slow phase (Fe^2+ CO, 20 °C): 28% | Φdis (Fe^2+ CO, 20 °C): 13% | fraction of fast phase (Fe^2+ NO, 20 °C): 57% | fraction of slow phase (Fe^2+ NO, 20 °C): 43% | Φdis (Fe^2+ NO, 20 °C): 4.4% | fraction of fast phase (Fe^2+ O2, 20 °C): 90% | fraction of slow phase (Fe^2+ O2, 20 °C): 10% | Φdis (Fe^2+ O2, 20 °C): 1.6% | fraction of fast phase (Fe^3+ NO, 20 °C): 57% | fraction of slow phase (Fe^3+ NO, 20 °C): 43% | Φdis (Fe^3+ NO, 20 °C): 22%
